Source: article PMC3363207
No constants are given. Whether binding was seen depends on the method and setting. For part of these data: Binding seen in cells or lysates may run through a third protein. Some entries that bind do so weakly or less than the wild type.

T1: α1 subunit of soluble guanylyl cyclase (sGC) (UniProt Q02108)
T1 sequence: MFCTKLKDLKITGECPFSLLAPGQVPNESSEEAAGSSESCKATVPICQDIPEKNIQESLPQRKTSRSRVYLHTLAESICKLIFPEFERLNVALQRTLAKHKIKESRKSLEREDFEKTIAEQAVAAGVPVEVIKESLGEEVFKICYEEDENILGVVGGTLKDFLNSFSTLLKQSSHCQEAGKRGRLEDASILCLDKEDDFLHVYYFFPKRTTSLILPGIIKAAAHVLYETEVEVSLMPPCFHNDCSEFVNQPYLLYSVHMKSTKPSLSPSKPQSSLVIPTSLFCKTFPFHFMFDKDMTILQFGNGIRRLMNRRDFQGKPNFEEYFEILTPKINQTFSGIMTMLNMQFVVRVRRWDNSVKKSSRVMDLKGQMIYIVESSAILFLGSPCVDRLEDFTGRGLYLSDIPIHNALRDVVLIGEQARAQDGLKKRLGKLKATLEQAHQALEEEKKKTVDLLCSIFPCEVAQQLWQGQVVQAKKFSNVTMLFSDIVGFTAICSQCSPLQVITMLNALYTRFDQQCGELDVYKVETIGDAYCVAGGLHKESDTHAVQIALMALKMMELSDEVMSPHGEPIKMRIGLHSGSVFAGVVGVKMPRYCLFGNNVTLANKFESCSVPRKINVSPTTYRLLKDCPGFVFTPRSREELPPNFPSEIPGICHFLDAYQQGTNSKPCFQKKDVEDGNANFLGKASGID

T2: β1 subunit of soluble guanylyl cyclase (sGC) (UniProt Q02153)
T2 sequence: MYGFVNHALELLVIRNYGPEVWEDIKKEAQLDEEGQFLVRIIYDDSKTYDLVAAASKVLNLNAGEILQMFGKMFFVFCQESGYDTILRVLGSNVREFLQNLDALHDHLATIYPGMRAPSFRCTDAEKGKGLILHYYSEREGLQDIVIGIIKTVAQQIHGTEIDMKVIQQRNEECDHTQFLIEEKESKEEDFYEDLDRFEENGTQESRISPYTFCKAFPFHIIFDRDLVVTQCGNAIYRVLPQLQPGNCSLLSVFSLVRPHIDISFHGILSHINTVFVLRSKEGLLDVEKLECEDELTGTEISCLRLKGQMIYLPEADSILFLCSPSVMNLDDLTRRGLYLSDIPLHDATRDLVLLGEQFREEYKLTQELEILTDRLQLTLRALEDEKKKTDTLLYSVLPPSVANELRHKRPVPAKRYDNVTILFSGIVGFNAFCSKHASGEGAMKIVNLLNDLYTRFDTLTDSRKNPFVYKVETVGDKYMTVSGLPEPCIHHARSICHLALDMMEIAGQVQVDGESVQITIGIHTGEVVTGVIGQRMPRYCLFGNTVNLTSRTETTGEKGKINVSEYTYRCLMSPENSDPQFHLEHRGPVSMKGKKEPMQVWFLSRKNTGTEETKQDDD

T3: soluble guanylyl cyclase (sGC) (in the lysate of BE2 human neuroblastoma cells) (human (endogenous in BE2)) (UniProt Q02108+Q02153)
T3 sequence 1: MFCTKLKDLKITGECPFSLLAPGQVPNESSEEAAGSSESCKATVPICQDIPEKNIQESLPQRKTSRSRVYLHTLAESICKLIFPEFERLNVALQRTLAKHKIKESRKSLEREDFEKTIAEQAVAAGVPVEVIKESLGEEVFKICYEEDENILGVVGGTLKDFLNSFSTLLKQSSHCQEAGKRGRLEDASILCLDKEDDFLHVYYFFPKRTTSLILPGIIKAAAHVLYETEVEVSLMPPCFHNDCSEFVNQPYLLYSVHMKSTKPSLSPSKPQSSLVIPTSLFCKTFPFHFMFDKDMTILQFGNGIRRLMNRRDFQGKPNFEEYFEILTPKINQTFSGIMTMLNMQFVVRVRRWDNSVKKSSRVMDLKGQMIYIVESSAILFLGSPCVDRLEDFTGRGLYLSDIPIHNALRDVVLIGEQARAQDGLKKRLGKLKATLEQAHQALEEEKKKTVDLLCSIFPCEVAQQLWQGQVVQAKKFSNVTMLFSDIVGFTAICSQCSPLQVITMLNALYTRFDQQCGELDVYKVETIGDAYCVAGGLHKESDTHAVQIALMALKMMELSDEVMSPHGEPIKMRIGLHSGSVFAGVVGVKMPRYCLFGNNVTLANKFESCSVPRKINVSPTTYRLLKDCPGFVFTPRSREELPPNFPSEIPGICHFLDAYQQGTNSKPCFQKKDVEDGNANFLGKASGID
T3 sequence 2: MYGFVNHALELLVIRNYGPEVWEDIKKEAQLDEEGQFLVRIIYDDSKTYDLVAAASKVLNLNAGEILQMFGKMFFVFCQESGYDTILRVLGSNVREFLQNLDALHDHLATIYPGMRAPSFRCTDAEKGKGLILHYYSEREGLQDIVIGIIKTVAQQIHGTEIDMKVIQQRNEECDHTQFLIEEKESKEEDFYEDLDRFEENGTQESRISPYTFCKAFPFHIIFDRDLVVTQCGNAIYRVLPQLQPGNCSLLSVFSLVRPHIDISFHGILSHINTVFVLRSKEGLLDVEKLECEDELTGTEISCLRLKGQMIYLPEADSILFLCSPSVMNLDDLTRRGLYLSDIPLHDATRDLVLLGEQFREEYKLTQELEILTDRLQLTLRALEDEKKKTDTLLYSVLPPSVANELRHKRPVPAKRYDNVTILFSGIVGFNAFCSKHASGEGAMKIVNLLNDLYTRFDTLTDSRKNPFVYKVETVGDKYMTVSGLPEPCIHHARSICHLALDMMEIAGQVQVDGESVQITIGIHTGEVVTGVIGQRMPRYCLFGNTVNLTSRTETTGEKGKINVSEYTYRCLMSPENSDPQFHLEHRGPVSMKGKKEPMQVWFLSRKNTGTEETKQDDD


Tests used:
[1] = molecular target: T1, α1 subunit of soluble guanylyl cyclase (sGC); assay: two-hybrid; yeast two-hybrid screening; LGN identified as a hit with sGC subunits
[2] = molecular target: T2, β1 subunit of soluble guanylyl cyclase (sGC); assay: as above
[3] = molecular target: T3, soluble guanylyl cyclase (sGC) (in the lysate of BE2 human neuroblastoma cells) (human (endogenous in BE2)); assay: co-IP; co-immunoprecipitation from the lysate of BE2 human neuroblastoma cell line

binding [1]	binding [2]	binding [3]	Binder
binds	binds	–	LGN, a Leu-Gly-Asn repeat enriched protein (protein, UniProt P81274 1-684) MEENLISMREDHSFHVRYRMEASCLELALEGERLCKSGDCRAGVSFFEAAVQVGTEDLKTLSAIYSQLGNAYFYLHDYAKALEYHHHDLTLARTIGDQLGEAKASGNLGNTLKVLGNFDEAIVCCQRHLDISRELNDKVGEARALYNLGNVYHAKGKSFGCPGPQDVGEFPEEVRDALQAAVDFYEENLSLVTALGDRAAQGRAFGNLGNTHYLLGNFRDAVIAHEQRLLIAKEFGDKAAERRAYSNLGNAYIFLGEFETASEYYKKTLLLARQLKDRAVEAQSCYSLGNTYTLLQDYEKAIDYHLKHLAIAQELNDRIGEGRACWSLGNAYTALGNHDQAMHFAEKHLEISREVGDKSGELTARLNLSDLQMVLGLSYSTNNSIMSENTEIDSSLNGVRPKLGRRHSMENMELMKLTPEKVQNWNSEILAKQKPLIAKPSAKLLFVNRLKGKKYKTNSSTKVLQDASNSIDHRIPNSQRKISADTIGDEGFFDLLSRFQSNRMDDQRCCLQEKNCHTASTTTSSTPPKMMLKTSSVPVVSPNTDEFLDLLASSQSRRLDDQRASFSNLPGLRLTQNSQSVLSHLMTNDNKEADEDFFDILVKCQGSRLDDQRCAPPPATTKGPTVPDEDFFSLILRSQGKRMDEQRVLLQRDQNRDTDFGLKDFLQNNALLEFKNSGKKSADH
–	–	binds	LGN (in the lysate of BE2 human neuroblastoma cells) (protein, UniProt P81274 1-684) MEENLISMREDHSFHVRYRMEASCLELALEGERLCKSGDCRAGVSFFEAAVQVGTEDLKTLSAIYSQLGNAYFYLHDYAKALEYHHHDLTLARTIGDQLGEAKASGNLGNTLKVLGNFDEAIVCCQRHLDISRELNDKVGEARALYNLGNVYHAKGKSFGCPGPQDVGEFPEEVRDALQAAVDFYEENLSLVTALGDRAAQGRAFGNLGNTHYLLGNFRDAVIAHEQRLLIAKEFGDKAAERRAYSNLGNAYIFLGEFETASEYYKKTLLLARQLKDRAVEAQSCYSLGNTYTLLQDYEKAIDYHLKHLAIAQELNDRIGEGRACWSLGNAYTALGNHDQAMHFAEKHLEISREVGDKSGELTARLNLSDLQMVLGLSYSTNNSIMSENTEIDSSLNGVRPKLGRRHSMENMELMKLTPEKVQNWNSEILAKQKPLIAKPSAKLLFVNRLKGKKYKTNSSTKVLQDASNSIDHRIPNSQRKISADTIGDEGFFDLLSRFQSNRMDDQRCCLQEKNCHTASTTTSSTPPKMMLKTSSVPVVSPNTDEFLDLLASSQSRRLDDQRASFSNLPGLRLTQNSQSVLSHLMTNDNKEADEDFFDILVKCQGSRLDDQRCAPPPATTKGPTVPDEDFFSLILRSQGKRMDEQRVLLQRDQNRDTDFGLKDFLQNNALLEFKNSGKKSADH
